Results on one molecule are retold here after article PMC11890858.

Chains of the proteins cited; added tags and fusions are not shown.
UniProt P19484: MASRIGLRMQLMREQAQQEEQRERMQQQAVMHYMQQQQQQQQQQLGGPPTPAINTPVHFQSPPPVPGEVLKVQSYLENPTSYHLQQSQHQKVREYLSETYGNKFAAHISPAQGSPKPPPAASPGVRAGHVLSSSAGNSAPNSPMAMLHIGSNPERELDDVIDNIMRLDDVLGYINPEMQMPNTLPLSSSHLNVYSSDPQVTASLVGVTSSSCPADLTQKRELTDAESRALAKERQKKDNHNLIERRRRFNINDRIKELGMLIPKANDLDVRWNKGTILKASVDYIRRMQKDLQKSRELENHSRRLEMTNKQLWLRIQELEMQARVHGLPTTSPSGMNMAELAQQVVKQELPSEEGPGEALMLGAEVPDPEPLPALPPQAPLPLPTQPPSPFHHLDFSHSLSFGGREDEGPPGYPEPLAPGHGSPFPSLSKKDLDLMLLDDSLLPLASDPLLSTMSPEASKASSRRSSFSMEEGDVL
UniProt P19532: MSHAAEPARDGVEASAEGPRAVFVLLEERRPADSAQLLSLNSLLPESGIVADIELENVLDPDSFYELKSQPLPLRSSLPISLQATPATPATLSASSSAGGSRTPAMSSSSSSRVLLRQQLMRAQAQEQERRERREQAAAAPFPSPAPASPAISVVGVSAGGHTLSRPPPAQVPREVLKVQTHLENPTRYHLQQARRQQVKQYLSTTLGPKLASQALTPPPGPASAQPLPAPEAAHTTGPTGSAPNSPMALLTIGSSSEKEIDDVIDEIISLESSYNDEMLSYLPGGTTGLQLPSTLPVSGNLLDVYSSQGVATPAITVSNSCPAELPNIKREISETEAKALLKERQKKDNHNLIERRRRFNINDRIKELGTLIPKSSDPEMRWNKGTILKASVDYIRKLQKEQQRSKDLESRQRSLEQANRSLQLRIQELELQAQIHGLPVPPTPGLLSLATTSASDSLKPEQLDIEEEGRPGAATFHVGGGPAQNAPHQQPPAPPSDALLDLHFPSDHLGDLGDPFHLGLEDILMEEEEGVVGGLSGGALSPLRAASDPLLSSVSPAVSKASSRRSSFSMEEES

Results are given in words; binding and its absence hold for the method and conditions named. Binding seen in cells or lysates may run through a third protein.

The target in one test is TFEB (UniProt P19484). Put plainly: co-IP; co-immunoprecipitation from cells under physiological conditions or under amino acid starvation (AA-star) stress; bait and cell line not stated in the main text.
A further test has as its target TFE3 (UniProt P19532). The test is described as above.

B1: Menin (protein, UniProt O00255 1-610)
chain: MGLKAAQKTLFPLRSIDDVVRLFAAELGREEPDLVLLSLVLGFVEHFLAVNRVIPTNVPELTFQPSPAPDPPGGLTYFPVADLSIIAALYARFTAQIRGAVDLSLYPREGGVSSRELVKKVSDVIWNSLSRSYFKDRAHIQSLFSFITGTKLDSSGVAFAVVGACQALGLRDVHLALSEDHAWVVFGPNGEQTAEVTWHGKGNEDRRGQTVNAGVAERSWLYLKGSYMRCDRKMEVAFMVCAINPSIDLHTDSLELLQLQQKLLWLLYDLGHLERYPMALGNLADLEELEPTPGRPDPLTLYHKGIASAKTYYRDEHIYPYMYLAGYHCRNRNVREALQAWADTATVIQDYNYCREDEEIYKEFFEVANDVIPNLLKEAASLLEAGEERPGEQSQGTQSQGSALQDPECFAHLLRFYDGICKWEEGSPTPVLHVGWATFLVQSLGRFEGQVRQKVRIVSREAEAAEAEEPWGEEAREGRRRGPRRESKPEEPPPPKKPALDKGLGTGQGAVSGPPRKPPGTVAGTARGPEGGSTAQVPAPTASPPPEGPVLTFQSEKMKGMKELLVATKINSSAIKLQLTAQSQVQMKKQKVSTPSDYTLSFLKRQRKGL
In the case of B1, the binding entry in the test with TFEB and with TFE3 was “no binding” throughout.
